{
  "source": "paper PMC9300173",
  "binders": {"B1": {"name": "cis-prenyltransferase 3 (CPT3), yeast two-hybrid fusion (enzyme, UniProt Q8S2T1 1-295)", "chain": "MAELPGQIRHIGGRMSQLLEQIYGFSRRSLFRVISMGPIPCHIAFIMDGNRRYAKKCGLLDGSGHKAGFSALMSMLQYCYELGIKYVTIYAFSIDNFRRKPEEVESVMDLMLEKIKSLLEKESIVHQYGIRVYFIGNLALLNDQVRAAAEKVMKATAKNSRVVLLICIAYNSTDEIVQAVKKSCINKSDNIEASNYKHEDSDSDIEGTDMENQEKKIQLVDIEENMQMSVAPNPDILIRSSGETRLSNFLLWQTGNTQLCSPAALWPEIGLRHLLWAILNFQRNHSYLEKRKKQL"}},
  "biological_target": "Lew1, yeast two-hybrid fusion (Arabidopsis thaliana)",
  "assay": "two-hybrid; pGADT7-GW and pGBKT7-GW in S. cerevisiae AH109; serial dilutions of double transformants on -Leu/-Trp/-His plates with 1 mM 3-AT; at least three replicates",
  "note": "These are yes or no findings as the source states them, for the method shown. A result given as binding can be weak or reduced; the word gives no strength. Where a sequence is shown, tags or fusion partners need not be part of it.",
  "data": [
    {"binder": "B1", "values": [
      {"measurement": "binding", "value": "binds"}
    ]}
  ]
}
